Drawing on patent US20190233519A1, this text covers binding for 1 molecule.

Amino acid sequences for entries named in this document (tags omitted). A change or cut given only in a name is not applied to a line headed by its entry.
UniProt P16410: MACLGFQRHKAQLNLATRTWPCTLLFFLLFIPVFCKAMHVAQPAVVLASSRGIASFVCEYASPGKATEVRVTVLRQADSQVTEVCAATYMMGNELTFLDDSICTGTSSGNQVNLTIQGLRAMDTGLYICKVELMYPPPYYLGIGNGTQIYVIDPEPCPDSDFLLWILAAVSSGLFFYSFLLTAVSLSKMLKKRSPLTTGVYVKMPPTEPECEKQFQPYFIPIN

For the assay, the target named is recombinant CTLA-4 ECD protein (Homo sapiens (Human)) (UniProt P16410). Kind of assay: screen of sdAb supernatants: ELISA on CTLA-4 ECD protein and FACS on CTLA-4 stable cell line.

No constants are given. Whether binding was seen depends on the method and setting. Some results given as binding are weak or reduced against the parent protein; the word gives no strength.

B1: AS07712 sdAb (VHH)
VHH: QIQLVESGGGSVQAGGSLRLSCAASAYTDRRYCMAWFRQAPGKEREGVATMDTDGSTRYADSVKGRFTISTDSAKNTLYLQMNSLEPEDTAMYYCAVGPNPRYCSGAINTRGAEHYFGYWGQGTQVTVSS
In the case of B1, the binding entry is reported as “binds”.
